In experiment [1] the target is T1, FLAG-BCA1 (human).
T1 sequence: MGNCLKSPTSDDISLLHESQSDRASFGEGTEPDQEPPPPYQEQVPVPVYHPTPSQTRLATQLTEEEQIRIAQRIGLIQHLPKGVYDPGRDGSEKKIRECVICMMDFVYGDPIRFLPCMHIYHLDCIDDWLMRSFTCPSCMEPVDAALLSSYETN
The experiment can be described thus: GST pull-down from HEK-293T cell extracts, western blot with anti-FLAG antibody. A general note: In western blotting, separated proteins are transferred to a membrane and probed.

Chains of the proteins cited; added tags and fusions are not shown.
UniProt Q9HAU4: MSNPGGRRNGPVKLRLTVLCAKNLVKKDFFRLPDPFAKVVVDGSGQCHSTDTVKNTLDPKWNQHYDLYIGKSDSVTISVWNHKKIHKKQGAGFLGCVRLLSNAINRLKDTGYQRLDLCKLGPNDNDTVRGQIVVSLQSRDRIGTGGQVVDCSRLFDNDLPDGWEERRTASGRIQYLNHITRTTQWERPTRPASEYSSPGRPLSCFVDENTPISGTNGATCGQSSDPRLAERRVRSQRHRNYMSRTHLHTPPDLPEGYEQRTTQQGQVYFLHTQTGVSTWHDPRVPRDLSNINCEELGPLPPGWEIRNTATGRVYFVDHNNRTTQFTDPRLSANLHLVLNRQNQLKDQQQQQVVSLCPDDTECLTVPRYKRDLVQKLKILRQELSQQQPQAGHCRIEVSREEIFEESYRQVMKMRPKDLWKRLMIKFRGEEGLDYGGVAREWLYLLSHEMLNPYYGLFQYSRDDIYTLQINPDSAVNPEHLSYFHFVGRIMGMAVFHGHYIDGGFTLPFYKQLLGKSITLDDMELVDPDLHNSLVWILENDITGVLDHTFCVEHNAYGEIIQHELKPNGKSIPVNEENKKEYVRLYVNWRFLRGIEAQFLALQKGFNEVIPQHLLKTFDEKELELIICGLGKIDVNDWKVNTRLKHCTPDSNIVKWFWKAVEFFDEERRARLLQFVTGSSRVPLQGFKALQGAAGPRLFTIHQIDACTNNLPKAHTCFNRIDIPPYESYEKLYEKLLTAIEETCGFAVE

Experiment [2] concerns the target T1, FLAG-BCA1 (human). Nature of the experiment: co-immunoprecipitation from co-transfected cells with anti-Smurf2 antibody.
In the next experiment the target is FLAG-Smurf2 (UniProt Q9HAU4). Nature of the experiment: co-transfection of GST-BCA1, FLAG-Smurf2 and HA-ubiquitin; precipitation of FLAG-tagged protein, anti-HA western blot.

This is an account of results in patent US20050065333A1.

These are yes or no findings as the source states them, for the method shown. For part of these data: Binding seen in cells or lysates may run through a third protein. Some results given as binding are weak or reduced against the parent protein; the word gives no strength. Sequences can lack the tags named with a protein.

Regarding “GST-AIP4 (from UniProt P08515 1-218; Q96J02 1-862) (enzyme)”, the binding entry with FLAG-BCA1 (human) [1] was “binds”.
As to “GST-Smurf2 (from UniProt Q9HAU4 1-748) (enzyme)”, the binding result with FLAG-BCA1 (human) [2] is “binds”.

B1: GST-BCA1 fusion protein (protein, not shown: a dimerising Fc or GST)
chain: MGNCLKSPTSDDISLLHESQSDRASFGEGTEPDQEPPPPYQEQVPVPVYHPTPSQTRLATQLTEEEQIRIAQRIGLIQHLPKGVYDPGRDGSEKKIRECVICMMDFVYGDPIRFLPCMHIYHLDCIDDWLMRSFTCPSCMEPVDAALLSSYETN
With B1, the binding entry with FLAG-Smurf2 is “binds”.
